Test results from article PMC8551656, “Discovery of a novel role of tumor suppressor PDCD4 in stimulation of translation termination” (The Journal of Biological Chemistry, 2021).

Sequences of proteins named here, by UniProt entry; tags and fusion partners are left off. A change or cut given only in a name is not applied to a line headed by its entry.
UniProt P15170: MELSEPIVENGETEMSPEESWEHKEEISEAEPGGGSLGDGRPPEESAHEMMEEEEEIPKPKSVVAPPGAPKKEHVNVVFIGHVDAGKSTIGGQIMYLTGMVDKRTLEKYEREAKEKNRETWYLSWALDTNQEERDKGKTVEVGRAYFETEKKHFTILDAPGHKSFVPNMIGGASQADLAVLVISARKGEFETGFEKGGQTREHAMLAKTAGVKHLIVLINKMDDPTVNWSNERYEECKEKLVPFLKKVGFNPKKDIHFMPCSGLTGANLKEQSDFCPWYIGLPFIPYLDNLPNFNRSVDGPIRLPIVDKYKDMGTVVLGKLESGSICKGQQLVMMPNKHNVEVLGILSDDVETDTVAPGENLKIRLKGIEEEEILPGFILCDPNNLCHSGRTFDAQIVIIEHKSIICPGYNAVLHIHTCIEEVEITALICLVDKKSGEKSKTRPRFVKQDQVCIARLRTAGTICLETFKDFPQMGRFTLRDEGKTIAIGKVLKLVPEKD

Biological target: T1, GST-tagged programmed cell death 4 protein (PDCD4) (human) (UniProt Q53EL6)
T1 sequence: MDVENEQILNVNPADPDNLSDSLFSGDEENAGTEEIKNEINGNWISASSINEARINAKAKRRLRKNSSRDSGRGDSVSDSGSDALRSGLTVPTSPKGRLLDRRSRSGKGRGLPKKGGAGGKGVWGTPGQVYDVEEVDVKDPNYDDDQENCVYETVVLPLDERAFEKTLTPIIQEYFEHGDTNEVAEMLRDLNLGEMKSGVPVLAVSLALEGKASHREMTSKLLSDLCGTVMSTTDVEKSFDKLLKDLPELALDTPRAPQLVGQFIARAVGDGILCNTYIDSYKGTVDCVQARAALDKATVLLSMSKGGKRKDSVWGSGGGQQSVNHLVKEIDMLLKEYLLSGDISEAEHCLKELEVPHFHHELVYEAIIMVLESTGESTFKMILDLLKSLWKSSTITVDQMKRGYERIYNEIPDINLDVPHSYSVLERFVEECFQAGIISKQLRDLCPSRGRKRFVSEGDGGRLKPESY
Assay: pull-down; GST-PDCD4 (40 pmol) co-incubated with PABP, eRF1 and eRF3a-GTP (40 pmol each), 20 μl, 1 h at 4 °C, 25 mM Tris-HCl pH 7.5, 10% glycerol, 100 mM KCl, 2.5 mM MgCl2, 2 mM DTT, 0.25 mM spermidine, 0.2 mM GTP; then held on glutathione-sepharose 4B, four washes, release by TEV protease, western blot; both purified

“eukaryotic release factor 3a (eRF3a) (from UniProt P15170)” was tested, and the binding was “no binding (tested: 40 pmol each in 20 μl)”.

These are yes or no findings as the source states them, for the method shown. Where a sequence is shown, tags or fusion partners need not be part of it.
